# Test results from publication PMC12040169 (PLOS Biology, 2025).
# This is one part of the list.
# System: T1, CTL2-GFP (C. trachomatis L2/434/Bu, GFP-expressing)
# T1 construct: L2/434/Bu, GFP-expressing
# Parameters: species or system HeLa; Intracellular C. trachomatis growth in HeLa cells, bulk GFP fluorescence relative to DMSO
# Conditions: bulk GFP, single well; 28.5 h, 10 µM; inhibitor
row,Structure (SMILES),% of control remaining
1,Cc1ccc(C)c(C2CCCN2C(=O)Cn2cccc(C(=O)NCc3ccccc3)c2=O)c1 (stereo not drawn) [CBK286062],124.932%
2,COc1cc(N)c2ncccc2c1 [CBK011972C],0%
3,O=[N+]([O-])c1ccccc1CN1CCC(N2CCCCC2)CC1 [CBK261852],101.984%
4,Nc1ncncc1-c1noc([C@@H]2CCCN2C2CCOCC2)n1 [CBK288932],123.377%
5,COc1cccc(COc2cncc(Cl)n2)c1OC [CBK176057],128.246%
6,Cc1ccnc(SCC(=O)N2CCc3ccccc3C2)n1 [CBK288218],119.466%
7,CCOC(=O)c1ccc(-c2ccc(/C=C/c3nn4cnnc4c(O)c3[N+](=O)[O-])o2)cc1 [CBK268409],117.402%
8,Cc1cc(CN2CCC(C(=O)c3ccc(F)cc3)CC2)no1 [CBK149121],100%
9,CC(C)[C@@H](CO)Nc1cc(Cl)nc2ccnn12 [CBK037242],157.505%
10,O=C1C2CCCCC2C(=O)N1c1ccc(Oc2ccc(Br)cc2)cc1 (stereo not drawn) [CBK263531],78.468%
11,O=C(NCCc1cccs1)Nc1cccc(SC(F)(F)F)c1 [CBK044999],102.945%
12,Cc1ccc(Cc2cnc(NC(=O)C3CCOCC3)s2)cc1F [CBK306130],133.843%
13,COc1cccc(CNC23CC4CC(CC(C4)C2)C3)c1OCc1ccccc1 [CBK268873C],106.386%
14,O=C(Nc1cc2nn(-c3ccccc3)nc2cc1Cl)c1ccc(-c2cccc([N+](=O)[O-])c2)o1 [CBK266271],206.392%
15,Cc1ccc(S(=O)(=O)Cc2ccc(C(=O)N3CCN(Cc4ccccc4)CC3)cc2)cc1 [CBK269588],125.501%
16,CCOC(=O)c1ccc(NC(=S)NCCN(CC)CC)cc1 [CBK018358],130.256%
17,Cc1cc(COc2nccnc2N2CCN(Cc3ccc(C(C)C)cc3)CC2)no1 [CBK084186],168.069%
18,CC(C)Cc1noc(CN2CCC(C(=O)NCc3ccco3)CC2)n1 [CBK305995],83.2386%
19,CN(C(=O)C1CC1)c1nc2c(s1)CCc1c-2cnn1C [CBK281927],119.891%
20,Cn1c(=O)[nH]c(=O)c2c1nc(SCCN1CCOCC1)n2CCCc1ccccc1 [CBK269234],122.343%
21,O=C(c1cncnc1)N1CCC(Cn2cncn2)(C2CCCCC2)CC1 [CBK136823],102.338%
22,COc1ccc(S(=O)(=O)NC(C)C(=O)Nc2cc(Cl)ccc2OC)cc1 (stereo not drawn) [CBK269479],112.339%
23,O=C1COc2ccccc2C/C=C/CC2(CCN(C(=O)c3n[nH]c4c3CCC4)CC2)CN1 [CBK292019],89.1359%
24,Cc1[nH]c(=O)c(C#N)cc1C(=O)N(C)Cc1cc(-c2ccncc2)no1 [CBK306859],90.3204%
25,COc1cncc(C(NC(=O)c2ccc3c(c2)CCC3)[C@H]2C[C@H](O)C2)c1 (stereo partly drawn) [CBK307646],94.8681%
26,CCOC(=O)CN1CCN(C(=O)Nc2ccccc2OC(F)(F)F)CC1 [CBK043656],80.7085%

row,Structure (SMILES),% of control remaining
1,CC(CCN1CCN(C)CC1)c1ccccc1 (stereo not drawn) [CBK261881],119.159%
2,O=C(O)COCCn1cc(-c2ccc(Cl)cc2)cn1 [CBK021914],133.255%
3,COc1ccc(S(=O)(=O)NCCNC(=O)c2ccc(-c3cccc(Cl)c3Cl)nc2NCc2cccnc2)cc1 [CBK076436],122.835%
4,COc1ccc(C(=O)C2=C(O)C(=O)N(CCN3CCOCC3)C2c2ccc(Cl)cc2)cc1 (stereo not drawn) [CBK264718],100%
5,Cc1nc(CCCn2cnc3ncccc3c2=O)sc1C [CBK306953],104.865%
6,Cn1c(=O)n(CC(=O)N2CCCc3ccccc32)c2cccnc21 [CBK283790],122.46%
7,CCCc1cc(-c2c(Cl)cccc2Cl)[nH]n1 [CBK107818],98.4012%
8,CC(C)c1nccn1CCC(=O)N1CCC(c2ccncc2)CC1 [CBK283512],81.9315%
9,O=C(NCc1ccc2c(c1)OCO2)c1ccc2c(c1)C(=O)N(Cc1cccnc1)C2=O [CBK267824],124.834%
10,CN1CCC(N2CCN(C(=O)c3ccc(-c4ccc(S(C)(=O)=O)cc4)nc3)CC2)CC1 [CBK158862],127.423%
11,Cn1cc(CCO)c2ccccc21 [CBK081087],111.137%
12,Nc1cccc(-c2nccnc2NCc2cccs2)c1 [CBK037537],113.279%
13,Cc1c(C(=O)N2CC(n3cc(C(C)(C)O)nn3)C2)sc2cccc(F)c12 [CBK306398],152.45%
14,CC(C)(CO)CNc1nc(-c2ccc3c(c2)OCO3)cnc1N [CBK063459],155.232%
15,COC(=O)c1ccsc1NS(=O)(=O)c1cc(Cl)sc1Cl [CBK039062],111.867%
16,O=C(O)CCC(=O)Nc1ccccc1C(=O)N1CCCCC1 [CBK266100],100%
17,Cc1ccc(C(=O)N2CCCN(C(=O)CN3CCCC3)C2)cc1 [CBK039081],103.46%
18,CCOc1c(OC)cc(C#N)cc1C(=O)O [CBK269925],138.009%
19,Cc1cc(Br)ccc1NC(=O)Cn1cnc2c1c(=O)n(C)c(=O)n2C [CBK133289],116.032%
20,CC1(C)CC(=O)c2sc(NS(=O)(=O)c3sc(Cl)cc3Br)nc2C1 [CBK200029],106.932%
21,O=c1c(Oc2ccccc2Br)c(C(F)(F)F)oc2c(CN3CCCC3)c(O)ccc12 [CBK217827],129.822%
22,COc1ccccc1N1CCN(C(=O)c2c(Cl)cnn2C)CC1 [CBK288247],115.087%
23,Cc1nc(-c2ccccc2)sc1C(=O)C1=C(O)C(=O)N(CCCN2CCOCC2)C1c1ccco1 (stereo not drawn) [CBK266476],96.7077%
24,O=S(=O)([O-])CCC[n+]1c(/C=C/Nc2ccccc2)oc2ccc3ccccc3c21 [CBK261082],88.9893%
25,CN(C)[C@@H]1CN(C(=O)C2CC2)C[C@H]1c1cn(C)c2ccccc12 [CBK282681],107.518%
26,CCOc1cc(Cl)c(S(=O)(=O)NCCCN2CCOCC2)cc1Cl [CBK268781],129.445%

# 2 records picked at random from those above, as already listed:
row,Structure (SMILES),% of control remaining
22,COc1ccc(S(=O)(=O)NC(C)C(=O)Nc2cc(Cl)ccc2OC)cc1 (stereo not drawn) [CBK269479],112.339%
17,Cc1ccc(C(=O)N2CCCN(C(=O)CN3CCCC3)C2)cc1 [CBK039081],103.46%

# Next part:

row,Structure (SMILES),% of control remaining
1,Cn1cc(C(C(=O)O)N2CCN(c3ccccc3)CC2)c2cc(C(=O)O)ccc21 (stereo not drawn) [CBK286627],94.109%
2,COc1ccc(C(=O)N2CCN(c3ccc(NC(=O)c4cccnc4)cc3)CC2)cc1 [CBK270200],145.844%
3,CCCC(NC(=O)c1cccc(-n2cnnc2)c1)c1cccs1 (stereo not drawn) [CBK282745],99.2626%
4,COc1cc(CNCCO)ccc1OCc1cccc(Cl)c1 [CBK270013C],145.679%
5,CC[C@H]1CN(C(C)=O)CC[C@H]1CC(=O)Nc1nccs1 [CBK289130],119.157%
6,COc1ccc([C@@]23CC[C@@H](NC(=O)Nc4cccc(Br)n4)C[C@@H]2N(C)CC3)cc1OC [CBK045703],97.5729%
7,O=C(CC12CC3CC(CC(C3)C1)C2)NCC(=O)Nc1ccc2[nH]c(=O)[nH]c2c1 [CBK295349],143.577%
8,COCCn1c(=O)c2c(nc3oc(C(C)(C)C)cn32)n(C)c1=O [CBK307566],122.107%
9,CC(C)NC(=O)NC[C@H]1C[C@@H]2CCN1C[C@@H]2c1cc(C2CCCC2)nn1C [CBK288744],104.651%
10,C=CCn1c(Cc2csc(NC(=O)Cc3ccc(Cl)cc3)n2)n[nH]c1=S [CBK295359],141.35%
11,CC(NC(=O)C1CCN(CCOc2ccc(F)cc2)CC1)c1cccc2ccccc12 (stereo not drawn) [CBK148634],98.4313%
12,CN(C)CCNC(=O)c1cccc(-c2cc(N3CCCN(C)CC3)n3nccc3n2)c1 [CBK037143],157.726%
13,O=S(=O)(O)CCCSc1nc2ccccc2o1 [CBK026507N],107.126%
14,CC(=O)c1ccc(-c2nccnc2NCc2cccnc2)s1 [CBK037050],178.719%
15,CC(C)Nc1cc(OC2CCOC2)ncn1 (stereo not drawn) [CBK115888],115.076%
16,CCOC(=O)C1(C2CCCCC2)CCN(C(=O)c2cc[nH]c2)CC1 [CBK137103],145.754%
17,Cc1cc(C23CC4CC(CC(C(=O)O)(C4)C2)C3)c(C)cc1C12CC3CC(CC(C(=O)O)(C3)C1)C2 [CBK261734],81.6925%
18,Cc1cc(C)cc(NC2=N[C@H]3[C@@H](O)[C@H](O)C[C@H](C(=O)N4CCCCC4)[C@H]3S2)c1 [CBK288952],125.577%
19,O=C(c1cccs1)N1CCC2(CC1)Nc1ccccc1-n1cccc12 [CBK283489],101.931%
20,CSc1ccc(C(NC(=O)OC(C)(C)C)C(=O)O)cc1 (stereo not drawn) [CBK287196],133.228%
21,O=C(c1ccccc1CCc1ccccc1)N1CCN(Cc2ccc3c(c2)OCO3)CC1 [CBK268623],103.84%
22,Cn1nnnc1SCC(=O)Nc1ccc(C(=O)O)cc1 [CBK267442],125.896%
23,O=C(NC1CCCCCC1)c1[nH]nc(O)c1Cc1c(Cl)cccc1Cl [CBK107847],123.586%
24,COCc1cc(CC2(NCc3ccc(NC(C)=O)cc3)COC2)no1 [CBK289701],153.072%
25,Cc1ccccc1NC(=O)Cc1nc(CN2CCC3(CCOC3)C2)cs1 (stereo not drawn) [CBK304164],140.561%
26,COc1ncccc1NC(=O)CSCC#N [CBK306314],125.619%

# Look-ups from the list:
# Value for Cc1nc(-c2ccccc2)sc1C(=O)C1=C(O)C(=O)N(CCCN2CCOCC2)C1c1ccco1 (stereo not drawn) [CBK266476] under % of control remaining: 96.7077%
# Value for CCOC(=O)c1ccc(-c2ccc(/C=C/c3nn4cnnc4c(O)c3[N+](=O)[O-])o2)cc1 [CBK268409] under % of control remaining: 117.402%
